From paper PMC11613458
These are yes or no findings as the source states them, for the method shown. In cells and extracts the contact can be indirect. For some assays here: Binding calls can cover weak binding; strength is not graded here. Sequences can lack the tags named with a protein. Each block holds one molecule with its values, some of them ahead of it.

Protein sequences, listed by entry. Tags and fused reporters are not part of them. Lines headed by an entry give the natural chain unless they say otherwise; changes in a name come on top.
UniProt O00505: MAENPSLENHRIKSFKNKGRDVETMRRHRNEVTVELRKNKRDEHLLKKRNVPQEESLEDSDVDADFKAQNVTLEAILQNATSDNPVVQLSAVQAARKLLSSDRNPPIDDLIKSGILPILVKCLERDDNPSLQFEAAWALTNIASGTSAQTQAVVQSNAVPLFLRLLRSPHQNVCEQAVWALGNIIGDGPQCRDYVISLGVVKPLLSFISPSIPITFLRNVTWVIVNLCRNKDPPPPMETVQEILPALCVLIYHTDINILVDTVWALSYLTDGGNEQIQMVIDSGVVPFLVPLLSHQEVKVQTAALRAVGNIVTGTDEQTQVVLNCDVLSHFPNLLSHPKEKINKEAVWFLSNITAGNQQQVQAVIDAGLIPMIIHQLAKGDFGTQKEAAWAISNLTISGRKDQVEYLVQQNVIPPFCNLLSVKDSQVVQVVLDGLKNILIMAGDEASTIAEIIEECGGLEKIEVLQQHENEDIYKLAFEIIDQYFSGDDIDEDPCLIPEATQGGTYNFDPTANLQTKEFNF

Experiments:
[1] = target: T1, FLAG-tagged NPAT C-region (1,031–1,427) (UniProt Q14207); experiment: co-IP; as a1, the pair co-expressed in the presence or absence of a third protein (KPNA3 or a KPNA3 fragment) to test whether it lowers the co-precipitate
T1 sequence: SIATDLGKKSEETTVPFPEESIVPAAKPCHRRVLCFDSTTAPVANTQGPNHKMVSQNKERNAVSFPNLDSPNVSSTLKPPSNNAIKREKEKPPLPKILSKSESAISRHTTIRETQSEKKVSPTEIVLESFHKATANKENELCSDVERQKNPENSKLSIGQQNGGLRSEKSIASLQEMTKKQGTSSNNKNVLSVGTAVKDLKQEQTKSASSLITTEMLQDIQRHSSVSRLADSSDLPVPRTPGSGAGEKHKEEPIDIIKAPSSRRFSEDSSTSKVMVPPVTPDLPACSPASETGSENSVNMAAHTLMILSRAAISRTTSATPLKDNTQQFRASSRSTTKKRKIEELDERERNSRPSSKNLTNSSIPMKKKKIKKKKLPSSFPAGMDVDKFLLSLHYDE

[2] = target: FLAG-tagged KPNA3 ΔARM3–5 mutant (UniProt O00505); experiment: co-IP; two tagged proteins co-expressed in transfected cells (293T); lysis in 150 mM NaCl, 0.25 mM EDTA, 50 mM Tris pH 7.3, 1% sodium deoxycholate, 1% Triton X-100; IP with anti-FLAG M2 beads or protein A/G agarose resin; western blot
[3] = target: FLAG-tagged KPNA3 ARM 3–5; experiment: as above

binding [1]: binds
Molecule: GFP-ARM 3–5 fusion protein (domain or fragment)

binding [1]: binds
Molecule: Myc-ARM 1–5 (domain or fragment)

binding [1]: binds
Molecule: Myc-ARM 3–10 (domain or fragment)

binding [2]: no binding | binding [3]: binds
B1: GFP-NPAT C-region (domain or fragment, UniProt Q14207 1031-1427)
chain: T1 sequence
